Assay results from article PMC7893028.
These are yes or no findings as the source states them, for the method shown. Binding seen in cells or lysates may run through a third protein. For part of these data: Binding can be weak; no strength is given. Tags and fused reporters may be left off the sequences shown.

Tests used:
Assay in all cases: co-IP; 293T cells co-transfected with HA-CLEC18A or HA-CLEC18A(S339R) and Flag-TLR3 (full-length or deletion mutants), 48 h; lysates precipitated with anti-Flag mAb Sepharose beads, blot with anti-HA and anti-Flag; isotype mAb beads as control
[1] = molecular target: Flag-tagged human TLR3ΔLRR19–22 (TLR3 without 19–22 LRR repeats) (human)
[2] = molecular target: Flag-tagged human TLR3ΔLRR1–3 (TLR3 without 1–3 LRR repeats) (human)
[3] = molecular target: Flag-tagged human TLR3 deletion mutant without leucine-rich repeat (LRR) domain (TLR3ΔLRR) (human)

Row | binding [1] | binding [2] | binding [3] | Binder
1 | binds | binds | no binding | HA-tagged human CLEC18A (pMACS.Kk-HA(C)-hCLEC18A) (protein, UniProt A5D8T8 27-446) EVWPPQLQEQAPMAGALNRKESFLLLSLHNRLRSWVQPPAADMRRLDWSDSLAQLAQARAALCGTPTPSLASGLWRTLQVGWNMQLLPAGLVSFVEVVSLWFAEGQRYSHAAGECARNATCTHYTQLVWATSSQLGCGRHLCSAGQAAIEAFVCAYSPRGNWEVNGKTIVPYKKGAWCSLCTASVSGCFKAWDHAGGLCEVPRNPCRMSCQNHGRLNISTCHCHCPPGYTGRYCQVRCSLQCVHGRFREEECSCVCDIGYGGAQCATKVHFPFHTCDLRIDGDCFMVSSEADTYYRARMKCQRKGGVLAQIKSQKVQDILAFYLGRLETTNEVIDSDFETRNFWIGLTYKTAKDSFRWATGEHQAFTSFAFGQPDNHGFGNCVELQASAAFNWNDQRCKTRNRYICQFAQEHISRWGPGS
2 | binds | binds | no binding | HA-tagged human CLEC18A(S339R) (pMACS.Kk-HA(C)-hCLEC18A(S339R)) (protein, UniProt A5D8T8 27-446) EVWPPQLQEQAPMAGALNRKESFLLLSLHNRLRSWVQPPAADMRRLDWSDSLAQLAQARAALCGTPTPSLASGLWRTLQVGWNMQLLPAGLVSFVEVVSLWFAEGQRYSHAAGECARNATCTHYTQLVWATSSQLGCGRHLCSAGQAAIEAFVCAYSPRGNWEVNGKTIVPYKKGAWCSLCTASVSGCFKAWDHAGGLCEVPRNPCRMSCQNHGRLNISTCHCHCPPGYTGRYCQVRCSLQCVHGRFREEECSCVCDIGYGGAQCATKVHFPFHTCDLRIDGDCFMVSSEADTYYRARMKCQRKGGVLAQIKRQKVQDILAFYLGRLETTNEVIDSDFETRNFWIGLTYKTAKDSFRWATGEHQAFTSFAFGQPDNHGFGNCVELQASAAFNWNDQRCKTRNRYICQFAQEHISRWGPGS
